{
  "source": "patent US10280205B2",
  "about": "“Method for treating cancer with an activated T lymphocyte that selectively recognizes a cancer cell consisting of specific peptide” (immatics biotechnologies GmbH, priority 2015, dated 2019)",
  "tested_on": "HLA molecules from shock-frozen tissue samples",
  "test": "Identification and label-free relative LC-MS quantitation of HLA-presented peptides on tumor and normal tissue samples (presentation profiles, presentation scores)",
  "parameters": "species or system human",
  "data": [
    {"substance": "223 (ALLENIALYL; listed as Homo sapiens) [compound 223]", "values": [
      {"measurement": "Other relevant organs/cancerous diseases", "setting": "additional tumor types on which the peptide was found: over-presented on more than 5% of the measured tumor samples, or presented on more than 5% with ratio of geometric means tumor vs normal tissues larger than 3", "value": "IALYL Esophageal Cancer, Urinary bladder Cancer"}
    ]},
    {"substance": "184: peptide found in RNF213 (gene looked up) (YLMDINGKMWL; listed as Homo sapiens) [compound 184]", "values": [
      {"measurement": "number of ovarian cancers with detectable presentation", "value": 5}
    ]},
    {"substance": "514 (ILVDWLVQV; listed as Homo sapiens) [compound 514]", "values": [
      {"measurement": "number of breast cancers with detectable presentation", "setting": "breast cancers", "value": 1},
      {"measurement": "number of cancer tissues with detectable presentation of the peptide", "setting": "cancer tissues, total, FIG. 1D, 1L-1AE", "value": 49},
      {"measurement": "number of cell lines and primary cultures with detectable presentation of the peptide", "setting": "cell lines / primary cultures, FIG. 1D, 1L-1AE", "value": 6},
      {"measurement": "peptide additionally detected on chronic lymphocytic leukemias (positive/tested samples)", "setting": "chronic lymphocytic leukemias, sample set of FIG. 1A-1D", "value": "2/12"},
      {"measurement": "number of colon cancers with detectable presentation", "setting": "colon cancers", "value": 3},
      {"measurement": "peptide additionally detected on colorectal cancers (positive/tested samples)", "setting": "colorectal cancers, sample set of FIG. 1A-1D", "value": "5/28"},
      {"measurement": "number of esophageal cancers with detectable presentation", "setting": "esophageal cancers", "value": 2},
      {"measurement": "peptide additionally detected on esophageal cancers (positive/tested samples)", "setting": "esophageal cancers, sample set of FIG. 1A-1D", "value": "2/17"},
      {"measurement": "number of gallbladder cancers with detectable presentation", "setting": "gallbladder cancers", "value": 1},
      {"measurement": "number of leukemias with detectable presentation", "setting": "leukemias", "value": 2},
      {"measurement": "number of liver cancers with detectable presentation", "setting": "liver cancers", "value": 3},
      {"measurement": "peptide additionally detected on liver cancers (positive/tested samples)", "setting": "liver cancers, sample set of FIG. 1A-1D", "value": "2/16"},
      {"measurement": "number of lung cancers with detectable presentation", "setting": "lung cancers", "value": 21},
      {"measurement": "peptide additionally detected on lung cancers (positive/tested samples)", "setting": "lung cancers, sample set of FIG. 1A-1D", "value": "17/91"},
      {"measurement": "peptide additionally detected on melanomas (positive/tested samples)", "setting": "melanomas, sample set of FIG. 1A-1D", "value": "1/2"},
      {"measurement": "number of normal bone marrows with detectable presentation", "setting": "normal tissue: bone marrow", "value": 2},
      {"measurement": "number of normal spleens with detectable presentation", "setting": "normal tissue: spleen", "value": 2},
      {"measurement": "number of normal tissues with detectable presentation of the peptide", "setting": "normal tissues, total, FIG. 1D, 1L-1AE", "value": 4},
      {"measurement": "number of ovarian cancers with detectable presentation", "value": 7},
      {"measurement": "number of rectum cancers with detectable presentation", "setting": "rectum cancers", "value": 23},
      {"measurement": "number of skin cancers with detectable presentation", "setting": "skin cancers", "value": 1},
      {"measurement": "peptide additionally detected on small cell lung cancers (positive/tested samples)", "setting": "small cell lung cancers, sample set of FIG. 1A-1D", "value": "4/15"},
      {"measurement": "number of stomach cancers with detectable presentation", "setting": "stomach cancers", "value": 4},
      {"measurement": "peptide additionally detected on stomach cancers (positive/tested samples)", "setting": "stomach cancers, sample set of FIG. 1A-1D", "value": "4/46"},
      {"measurement": "number of testis cancers with detectable presentation", "setting": "testis cancer", "value": 1},
      {"measurement": "number of urinary bladder cancers with detectable presentation", "setting": "urinary bladder cancers", "value": 1},
      {"measurement": "peptide additionally detected on urinary bladder cancers (positive/tested samples)", "setting": "urinary bladder cancers, sample set of FIG. 1A-1D", "value": "1/4"}
    ]},
    {"substance": "11 (KIFEMLEGV; listed as Homo sapiens) [compound 11]", "values": [
      {"measurement": "number of ovarian cancers with detectable presentation", "value": 5}
    ]},
    {"substance": "512 (SLSEIVPCL; listed as Homo sapiens) [compound 512]", "values": [
      {"measurement": "number of ovarian cancers with detectable presentation", "value": 3}
    ]},
    {"substance": "32 (KLDDLTQDLTV; listed as Homo sapiens) [compound 32]", "values": [
      {"measurement": "number of ovarian cancers with detectable presentation", "value": 8}
    ]},
    {"substance": "463 (SLVESHLSDQLTL; listed as Homo sapiens) [compound 463]", "values": [
      {"measurement": "number of ovarian cancers with detectable presentation", "value": 5}
    ]},
    {"substance": "560 (ALWDIETGQQTTT; listed as Homo sapiens) [compound 560]", "values": [
      {"measurement": "number of ovarian cancers with detectable presentation", "value": 3}
    ]},
    {"substance": "1 (SLMEPPAVLLL; listed as Homo sapiens) [compound 1]", "values": [
      {"measurement": "number of ovarian cancers with detectable presentation", "value": 11}
    ]},
    {"substance": "587 (VMNDRLYAI; listed as Homo sapiens) [compound 587]", "values": [
      {"measurement": "number of ovarian cancers with detectable presentation", "value": 9}
    ]},
    {"substance": "57 (TLAELQPPVQL; listed as Homo sapiens) [compound 57]", "values": [
      {"measurement": "number of ovarian cancers with detectable presentation", "value": 5}
    ]},
    {"substance": "198 (KTINKVPTV; listed as Homo sapiens) [compound 198]", "values": [
      {"measurement": "number of ovarian cancers with detectable presentation", "value": 8}
    ]}
  ]
}
